Experimental data taken from US20230082929A1, “METHODS OF GENERATING AND USING SENESCENT-INDUCED CELLS FOR TREATMENT OF CANCER AND COMPOSITIONS RELATING THERETO” (The Wistar Institute of Anatomy and Biology, priority 2020, published 2023).
No constants are given. Whether binding was seen depends on the method and setting. Binding seen in cells or lysates may run through a third protein. Some binding calls cover weakened binding; strength is not graded here.

Chains of the proteins cited; added tags and fusions are not shown. Lines headed by an entry give the natural chain unless they say otherwise; changes in a name come on top.
UniProt P11387: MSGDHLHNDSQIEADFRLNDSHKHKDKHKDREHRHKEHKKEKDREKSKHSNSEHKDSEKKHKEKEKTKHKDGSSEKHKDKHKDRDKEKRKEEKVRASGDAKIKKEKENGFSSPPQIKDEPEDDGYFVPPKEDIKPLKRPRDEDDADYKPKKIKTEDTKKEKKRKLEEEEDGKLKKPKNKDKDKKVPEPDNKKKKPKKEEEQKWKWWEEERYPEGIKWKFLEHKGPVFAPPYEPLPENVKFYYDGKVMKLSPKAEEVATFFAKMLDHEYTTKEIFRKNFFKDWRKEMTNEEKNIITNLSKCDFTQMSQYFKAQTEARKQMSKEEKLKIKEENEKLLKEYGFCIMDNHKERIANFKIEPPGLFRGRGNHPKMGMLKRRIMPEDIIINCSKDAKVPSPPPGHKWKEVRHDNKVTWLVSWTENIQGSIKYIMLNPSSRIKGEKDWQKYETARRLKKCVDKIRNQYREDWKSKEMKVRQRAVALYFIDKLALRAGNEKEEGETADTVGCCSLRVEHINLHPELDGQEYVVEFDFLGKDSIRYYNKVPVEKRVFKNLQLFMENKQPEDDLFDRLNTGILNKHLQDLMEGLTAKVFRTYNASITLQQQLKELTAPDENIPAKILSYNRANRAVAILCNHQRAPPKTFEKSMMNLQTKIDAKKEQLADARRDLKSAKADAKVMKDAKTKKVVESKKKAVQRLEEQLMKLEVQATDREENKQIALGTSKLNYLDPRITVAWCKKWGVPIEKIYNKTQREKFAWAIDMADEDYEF

Molecular target: GST-tagged cGAS (Addgene, Cat. No: 108676) [GST: P08515]
Assay: GST pull-down: GST-cGAS on glutathione-sepharose beads with His-tagged TOP1, anti-TOP1 immunoblot

binding: binds
Substance: His-tagged TOP1 (Sino Biological, Cat. No: 17455-H07B) (from UniProt P11387 1-765) (enzyme)
